PubChem BioAssay AID1259405, NCATS – 2018

Aim: 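Silenced genes that increase secreted GFP made by CHO cells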 (primary screen)
Cells: Chinese hamster CHO-K1 ovary cells with stable secreted eGFP expression
Knock-down reagent: single siRNA against mouse genes, 0.8 pmol siRNA per well (2 µl of 400 nM stock)
Time to read-out: 3 days
Measured: 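Per-well intracellular GFP measured by laser scanning cytometry, plus viability from ATP luminescence, each relative to plate median of non-targeting control wells, in %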
Direction: GFP, % of control: higher = more GFP per well, higher productivity; viability (ATP), % of control: higher = more viable cells (more ATP)
Call rule: 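Called active when intracellular GFP, relative to negative control, is at or above 120%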
The whole screen tested about 50,000 reagents; this is a part drawn at random. Over the whole deposit, about 4,000 (8%) were called active. 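Mouse siRNA library applied to hamster cells; one well for each siRNA.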 A number with no mark means an inactive call. No sequences are given here.

Depletion of Ap5z1 [SID363550200] gave: GFP, % of control 57.3; viability (ATP), % of control 93.1.
Against Ap5z1 [SID363564709] the deposit lists GFP, % of control 105; viability (ATP), % of control 63.8.
With knock-down of Ap5z1 [SID363588254], the screen gave GFP, % of control 140 (active); viability (ATP), % of control 113.
Against Or2d2 [SID363544936], the entry reads GFP, % of control 81.9; viability (ATP), % of control 64.3.
After knock-down of Or2d2 [SID363551264], the record shows GFP, % of control 93.3; viability (ATP), % of control 89.2.
Silencing of Or2d2 [SID363557813] came out at: GFP, % of control 45.3; viability (ATP), % of control 20.7.
Against Nip7 [SID363540813], the entry reads GFP, % of control 62; viability (ATP), % of control 80.
For Nip7 [SID363543264], the entry reads GFP, % of control 61.1; viability (ATP), % of control 69.5.
Silencing of Nip7 [SID363552757] resulted in: GFP, % of control 115; viability (ATP), % of control 86.1.
Crisp3 [SID363550135] gave GFP, % of control 73.2; viability (ATP), % of control 79.2.
After knock-down of Crisp3 [SID363564644], the screen gave GFP, % of control 48.4; viability (ATP), % of control 38.
Knock-down of Crisp3 [SID363588189] came out at: GFP, % of control 74.3; viability (ATP), % of control 127.
For Rag1 [SID363569632] the deposit lists GFP, % of control 154 (active); viability (ATP), % of control 105.
After knock-down of Rag1 [SID363577376], the screen gave GFP, % of control 95.9; viability (ATP), % of control 77.
Knock-down of Rag1 [SID363578784] gave: GFP, % of control 58.9; viability (ATP), % of control 72.5.
After knock-down of Msrb2 [SID363572903] the results were GFP, % of control 135 (active); viability (ATP), % of control 105.
Depletion of Msrb2 [SID363577479] came out at: GFP, % of control 78.6; viability (ATP), % of control 103.
With knock-down of Msrb2 [SID363580999] the results were GFP, % of control 89.1; viability (ATP), % of control 61.9.
Mcat [SID363545332] scored GFP, % of control 144 (active); viability (ATP), % of control 61.2.
For Mcat [SID363548845] the deposit lists GFP, % of control 102; viability (ATP), % of control 94.9.
Mcat [SID363562651] gave GFP, % of control 26; viability (ATP), % of control 34.3.
With knock-down of Sult2b1 [SID363570554] the results were GFP, % of control 115; viability (ATP), % of control 89.6.
Sult2b1 [SID363579354] showed GFP, % of control 89.1; viability (ATP), % of control 45.3.
With knock-down of Sult2b1 [SID363583226], the screen gave GFP, % of control 126 (active); viability (ATP), % of control 111.
With knock-down of Actn3 [SID363572179] the results were GFP, % of control 62.2; viability (ATP), % of control 65.2.
Actn3 [SID363573939] showed GFP, % of control 107; viability (ATP), % of control 82.7.
Against Zcchc18 [SID363540711] the deposit lists GFP, % of control 56.7; viability (ATP), % of control 57.9.
Knock-down of Zcchc18 [SID363543162] came out at: GFP, % of control 47.1; viability (ATP), % of control 68.8.
Zcchc18 [SID363552655] showed GFP, % of control 118; viability (ATP), % of control 174.
For Npy1r [SID363571164], the entry reads GFP, % of control 74.3; viability (ATP), % of control 53.
Npy1r [SID363571516] showed GFP, % of control 90.4; viability (ATP), % of control 79.4.
For Npy1r [SID363571868], the entry reads GFP, % of control 89.4; viability (ATP), % of control 65.1.
Depletion of Ctnna3 [SID363572271] came out at: GFP, % of control 202 (active); viability (ATP), % of control 80.4.
Ctnna3 [SID363574031] gave GFP, % of control 55.4; viability (ATP), % of control 65.8.
Silencing of Trf [SID363569704] came out at: GFP, % of control 102; viability (ATP), % of control 118.
Trf [SID363576744] scored GFP, % of control 44.5; viability (ATP), % of control 32.7.
Trf [SID363578152] gave GFP, % of control 77.5; viability (ATP), % of control 77.6.
After knock-down of Hecw2 [SID363562209], the record shows GFP, % of control 66.5; viability (ATP), % of control 89.7.
With knock-down of Hecw2 [SID363567347] the results were GFP, % of control 32.6; viability (ATP), % of control 79.4.
Depletion of Hecw2 [SID363584704] came out at: GFP, % of control 88.9; viability (ATP), % of control 68.9.

Taken from above:
Value of Rag1 [SID363578784] in “viability (ATP), % of control”: 72.5
For “viability (ATP), % of control”, Ap5z1 [SID363564709] is entered as 63.8
